Test results published in PubChem BioAssay (EPA / NIEHS).
This list was built around the results that the source calls inconclusive (neither active nor inactive); the mix of calls is not that of the screen. Where the call is inconclusive, the potency comes from a doubtful curve fit. Activity calls are given as the source filed them. Rule for the calls: active = hit-call score of the fitted dose curve at least 0.9, where 1 is the maximum; inconclusive = response in the unintended direction; inactive = score below 0.9.

Amino acid sequences for entries named in this document (tags omitted). A change or cut given only in a name is not applied to a line headed by its entry.
UniProt P21728, whole entry, looked up: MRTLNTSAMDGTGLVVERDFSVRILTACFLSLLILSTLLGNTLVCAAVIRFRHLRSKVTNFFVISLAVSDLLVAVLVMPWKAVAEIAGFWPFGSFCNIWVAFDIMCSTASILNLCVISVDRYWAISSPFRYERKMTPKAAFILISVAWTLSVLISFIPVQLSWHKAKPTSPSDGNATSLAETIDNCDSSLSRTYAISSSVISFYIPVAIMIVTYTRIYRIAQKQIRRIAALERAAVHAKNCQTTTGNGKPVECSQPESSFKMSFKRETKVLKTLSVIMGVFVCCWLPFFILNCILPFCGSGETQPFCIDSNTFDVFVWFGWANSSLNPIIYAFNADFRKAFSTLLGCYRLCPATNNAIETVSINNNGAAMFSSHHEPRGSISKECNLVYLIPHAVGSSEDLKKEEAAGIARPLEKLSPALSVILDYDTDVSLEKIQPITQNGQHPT
UniProt Q15722: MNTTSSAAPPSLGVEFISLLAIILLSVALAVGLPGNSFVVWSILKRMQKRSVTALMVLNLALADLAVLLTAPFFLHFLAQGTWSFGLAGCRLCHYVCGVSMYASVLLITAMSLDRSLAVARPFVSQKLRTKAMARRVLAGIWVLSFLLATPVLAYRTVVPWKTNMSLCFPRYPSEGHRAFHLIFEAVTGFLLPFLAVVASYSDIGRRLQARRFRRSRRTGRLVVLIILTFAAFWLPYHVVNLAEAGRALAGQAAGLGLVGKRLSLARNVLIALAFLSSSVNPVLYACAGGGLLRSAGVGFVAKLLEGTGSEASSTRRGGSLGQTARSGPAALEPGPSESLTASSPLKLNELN
UniProt P20309, whole entry, looked up: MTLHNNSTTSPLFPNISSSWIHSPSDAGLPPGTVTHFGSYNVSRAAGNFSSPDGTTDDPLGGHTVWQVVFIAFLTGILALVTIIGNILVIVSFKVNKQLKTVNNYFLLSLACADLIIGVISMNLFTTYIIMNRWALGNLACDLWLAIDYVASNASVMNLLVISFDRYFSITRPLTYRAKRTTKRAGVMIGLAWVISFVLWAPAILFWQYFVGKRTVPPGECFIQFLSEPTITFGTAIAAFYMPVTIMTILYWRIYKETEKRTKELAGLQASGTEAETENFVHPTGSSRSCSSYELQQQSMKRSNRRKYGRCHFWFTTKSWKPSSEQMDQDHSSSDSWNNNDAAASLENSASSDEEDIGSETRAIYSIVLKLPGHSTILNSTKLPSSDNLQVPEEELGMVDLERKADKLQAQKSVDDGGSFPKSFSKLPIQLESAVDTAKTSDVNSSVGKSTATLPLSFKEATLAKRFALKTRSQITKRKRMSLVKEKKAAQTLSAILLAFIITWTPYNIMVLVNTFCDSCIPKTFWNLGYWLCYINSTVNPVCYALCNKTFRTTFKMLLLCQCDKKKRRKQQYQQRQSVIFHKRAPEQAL

These compounds were tested against D(1A) dopamine receptor (Homo sapiens) (UniProt P21728) (assay: NVS_GPCR_hDRD1: NovaScreen (NVS) G Protein-Coupled Receptor Assay for human Dopamine Receptor D1 (DRD1) (AID 2283269)).
Outline: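 Extracted HEK293 DRD1 is incubated 1 h with compound and a tritiated or iodinated radioligand, then filtered and counted. Screening runs 25 uM in duplicate with on-plate positive and negative controls.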
With `CSc1ccc(O)cc1C` the AC50 was inconclusive: 25 µM.
In the case of `CS(C)(=O)=O`, the AC50 is reported as inconclusive: 25 µM.
With `O=C(OC[C@H]1O[C@@H](OC(=O)c2cc(O)c(O)c(OC(=O)c3cc(O)c(O)c(O)c3)c2)[C@H](OC(=O)c2cc(O)c(O)c(OC(=O)c3cc(O)c(O)c(O)c3)c2)[C@@H](OC(=O)c2cc(O)c(O)c(OC(=O)c3cc(O)c(O)c(O)c3)c2)[C@@H]1OC(=O)c1cc(O)c(O)c(OC(=O)c2cc(O)c(O)c(O)c2)c1)c1cc(O)c(O)c(OC(=O)c2cc(O)c(O)c(O)c2)c1` the outcome was “inactive”.
In the case of `C=CC(C)(C)O`, the AC50 is reported as inconclusive: 5.84 µM.
`CCc1cccc(CC)c1NC(=O)C(=O)O` was tested, and the outcome was “inactive”.
`C=CCc1cc(S(=O)(=O)c2ccc(O)c(CC=C)c2)ccc1O` was tested, and the AC50 was active: 9.78 µM.
With `CCCCCCCCCCCC[N+](C)(C)C` the AC50 was active: 16.1 µM.
`[Cl][Sc]([Cl])[Cl]` was tested, and the outcome was “inactive”.
In the case of `NC(=O)N1C(=O)C(C(=O)c2cc(Cl)cs2)c2cc(F)c(Cl)cc21` (stereo not drawn), the outcome is reported as “inactive”.
For `O=C1OC2(c3cc(Br)c(O)c(Br)c3Oc3c2cc(Br)c(O)c3Br)c2c(Cl)c(Cl)c(Cl)c(Cl)c21`, the AC50 was active: 0.423 µM.
In the case of `CSc1nnc(C(C)(C)C)c(=O)[nH]1`, the AC50 is reported as inconclusive: 6.83 µM.
For `CCC1CCCCC1`, the outcome was “inactive”.
With `CCc1cccc(C)c1N(C(=O)C(=O)O)C(C)COC` (stereo not drawn) the AC50 was inconclusive: 6.5 µM.
For `Cc1cc(O)c(C)c(C)c1O`, the AC50 was inconclusive: 6.23 µM.
For `CC(c1cc(C(C)(C)C)cc(C(C)(C)C)c1O)c1cc(C(C)(C)C)cc(C(C)(C)C)c1O`, the outcome was “inactive”.
For `CC(=O)c1ccccc1N`, the AC50 was inconclusive: 13.6 µM.
`COc1cc(C(C)C)c2c(c1)S(=O)(=O)N(COc1cc(=O)n3cccc(OCCN4CCCCC4)c3n1)C2=O` was tested, and the AC50 was active: 6.25 µM.

The compounds below were run against human Leukotriene B4 Receptor 1 (LTB4-BLT1), LTB4R (gene 1241) (UniProt Q15722) (assay: NVS_GPCR_hLTB4_BLT1: NovaScreen (NVS) G Protein-Coupled Receptor Assay for human Leukotriene B4 Receptor 1 (LTB4-BLT1) (AID 2283271)).
Outline: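 Cell-free human neutrophil receptor preparation, 1 h exposure, radioligand binding read by filter scintillation counting. Single 25 uM duplicate screen, then concentration series topping at 50 uM; binding loss scored against DMSO baseline.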
`CN1C(=O)CC[C@H]1c1cccnc1` was tested, and the AC50 was inconclusive: 0.216 µM.
In the case of `NC(=O)N1C(=O)C(C(=O)c2cc(Cl)cs2)c2cc(F)c(Cl)cc21` (stereo not drawn), the AC50 is reported as inconclusive: 0.000878 µM.
For `c1ccc2ncccc2c1`, the AC50 was inconclusive: 11.8 µM.

The compounds below were run against Muscarinic acetylcholine receptor M3 (Homo sapiens) (UniProt P20309) (assay: NVS_GPCR_hM3: NovaScreen (NVS) G Protein-Coupled Receptor Assay for human Muscarinic, M3 Receptor (AID 2283272)).
Outline: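 Radioligand displacement binding on human M3 receptor in CHO-derived membranes, 1 h incubation, filter-based scintillation counting. Primary screen in duplicate at 25 uM; actives followed up in concentration series; loss of signal versus DMSO.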
`C=CCOC(Cn1ccnc1)c1ccc(Cl)cc1Cl` (stereo not drawn) was tested, and the AC50 was active: 5.02 µM.
In the case of `C=CCCCCCCCCCCCC`, the AC50 is reported as inconclusive: 0.213 µM.
`O=C(N[C@@H](Cc1ccccc1)[C@@H](O)C(=O)N1C[C@@H](O)[C@@H](O)C1)c1cc2cc(Cl)ccc2[nH]1` was tested, and the AC50 was inconclusive: 0.208 µM.
